No constants are given. Whether binding was seen depends on the method and setting. In cells and extracts the contact can be indirect. Some entries that bind do so weakly or less than the wild type.
Biological target: T1, glial cell line-derived neurotrophic factor (GDNF) (rat (endogenous in C6)) (UniProt Q07731)
T1 sequence: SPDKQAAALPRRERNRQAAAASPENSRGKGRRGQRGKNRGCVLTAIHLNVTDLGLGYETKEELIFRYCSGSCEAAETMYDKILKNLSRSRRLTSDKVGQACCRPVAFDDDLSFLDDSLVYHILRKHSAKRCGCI
Assay: co-IP; membrane proteins of C6 glioma cells treated with or without 40 ng/ml GDNF; protein A/G-agarose beads with anti-GDNF, anti-NRP1 or IgG, overnight at 4°C; Western blot with anti-GDNF or anti-NRP1

binding: binds
Substance: neuropilin-1 (NRP1) (from UniProt Q9QWJ9 22-922) (receptor)

From paper PMC5650320
